Assay results: article PMC3415447
No constants are given. Whether binding was seen depends on the method and setting. Binding seen in cells or lysates may run through a third protein. Some entries that bind do so weakly or less than the wild type. Tags and fused reporters may be left off the sequences shown.

The chains behind the UniProt entries cited, without tags or fusion partners.
UniProt P40562: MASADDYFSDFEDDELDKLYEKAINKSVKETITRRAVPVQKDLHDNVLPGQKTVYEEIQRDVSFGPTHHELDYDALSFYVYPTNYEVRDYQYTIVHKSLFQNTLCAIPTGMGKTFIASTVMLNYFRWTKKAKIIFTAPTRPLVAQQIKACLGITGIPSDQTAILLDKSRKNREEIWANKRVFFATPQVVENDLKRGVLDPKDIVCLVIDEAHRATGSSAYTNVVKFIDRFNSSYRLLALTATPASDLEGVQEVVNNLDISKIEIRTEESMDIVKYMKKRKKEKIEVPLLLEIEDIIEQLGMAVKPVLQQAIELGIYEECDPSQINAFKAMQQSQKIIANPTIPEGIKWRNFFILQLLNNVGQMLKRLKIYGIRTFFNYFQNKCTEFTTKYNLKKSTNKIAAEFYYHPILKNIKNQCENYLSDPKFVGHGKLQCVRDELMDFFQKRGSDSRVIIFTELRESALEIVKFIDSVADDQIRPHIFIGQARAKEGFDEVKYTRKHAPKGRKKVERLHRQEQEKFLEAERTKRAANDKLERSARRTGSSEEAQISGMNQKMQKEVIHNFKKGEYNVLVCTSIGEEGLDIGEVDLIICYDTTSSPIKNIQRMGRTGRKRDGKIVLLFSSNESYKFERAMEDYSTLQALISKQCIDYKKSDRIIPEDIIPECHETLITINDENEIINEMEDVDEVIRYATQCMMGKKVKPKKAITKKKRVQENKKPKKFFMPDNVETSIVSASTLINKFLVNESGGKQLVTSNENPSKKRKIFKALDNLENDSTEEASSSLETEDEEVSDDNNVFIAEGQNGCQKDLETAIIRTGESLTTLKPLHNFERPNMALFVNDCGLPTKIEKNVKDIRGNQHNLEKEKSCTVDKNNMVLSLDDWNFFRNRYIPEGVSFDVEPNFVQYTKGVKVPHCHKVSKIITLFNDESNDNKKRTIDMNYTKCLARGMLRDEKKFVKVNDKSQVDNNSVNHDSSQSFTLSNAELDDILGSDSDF

B1: chromosomally 6xHis-tagged Msh2 (protein, UniProt P25847 1-964)
chain: MSSTRPELKFSDVSEERNFYKKYTGLPKKPLKTIRLVDKGDYYTVIGSDAIFVADSVYHTQSVLKNCQLDPVTAKNFHEPTKYVTVSLQVLATLLKLCLLDLGYKVEIYDKGWKLIKSASPGNIEQVNELMNMNIDSSIIIASLKVQWNSQDGNCIIGVAFIDTTAYKVGMLDIVDNEVYSNLESFLIQLGVKECLVQDLTSNSNSNAEMQKVINVIDRCGCVVTLLKNSEFSEKDVELDLTKLLGDDLALSLPQKYSKLSMGACNALIGYLQLLSEQDQVGKYELVEHKLKEFMKLDASAIKALNLFPQGPQNPFGSNNLAVSGFTSAGNSGKVTSLFQLLNHCKTNAGVRLLNEWLKQPLTNIDEINKRHDLVDYLIDQIELRQMLTSEYLPMIPDIRRLTKKLNKRGNLEDVLKIYQFSKRIPEIVQVFTSFLEDDSPTEPVNELVRSVWLAPLSHHVEPLSKFEEMVETTVDLDAYEENNEFMIKVEFNEELGKIRSKLDTLRDEIHSIHLDSAEDLGFDPDKKLKLENHHLHGWCMRLTRNDAKELRKHKKYIELSTVKAGIFFSTKQLKSIANETNILQKEYDKQQSALVREIINITLTYTPVFEKLSLVLAHLDVIASFAHTSSYAPIPYIRPKLHPMDSERRTHLISSRHPVLEMQDDISFISNDVTLESGKGDFLIITGPNMGGKSTYIRQVGVISLMAQIGCFVPCEEAEIAIVDAILCRVGAGDSQLKGVSTFMVEILETASILKNASKNSLIIVDELGRGTSTYDGFGLAWAIAEHIASKIGCFALFATHFHELTELSEKLPNVKNMHVVAHIEKNLKEQKHDDEDITLLYKVEPGISDQSFGIHVAEVVQFPEKIVKMAKRKANELDDLKTNNEDLKKAKLSLQEVNEGNIRLKALLKEWIRKVKEEGLHDPSKITEEASQHKIQELLRAIANEPEKENDNYLKYIKALLL
B2: chromosomally 6xHis-tagged Msh6 (protein, UniProt Q03834 1-1242)
chain: MAPATPKTSKTAHFENGSTSSQKKMKQSSLLSFFSKQVPSGTPSKKVQKPTPATLENTATDKITKNPQGGKTGKLFVDVDEDNDLTIAEETVSTVRSDIMHSQEPQSDTMLNSNTTEPKSTTTDEDLSSSQSRRNHKRRVNYAESDDDDSDTTFTAKRKKGKVVDSESDEDEYLPDKNDGDEDDDIADDKEDIKGELAEDSGDDDDLISLAETTSKKKFSYNTSHSSSPFTRNISRDNSKKKSRPNQAPSRSYNPSHSQPSATSKSSKFNKQNEERYQWLVDERDAQRRPKSDPEYDPRTLYIPSSAWNKFTPFEKQYWEIKSKMWDCIVFFKKGKFFELYEKDALLANALFDLKIAGGGRANMQLAGIPEMSFEYWAAQFIQMGYKVAKVDQRESMLAKEMREGSKGIVKRELQCILTSGTLTDGDMLHSDLATFCLAIREEPGNFYNETQLDSSTIVQKLNTKIFGAAFIDTATGELQMLEFEDDSECTKLDTLMSQVRPMEVVMERNNLSTLANKIVKFNSAPNAIFNEVKAGEEFYDCDKTYAEIISSEYFSTEEDWPEVLKSYYDTGKKVGFSAFGGLLYYLKWLKLDKNLISMKNIKEYDFVKSQHSMVLDGITLQNLEIFSNSFDGSDKGTLFKLFNRAITPMGKRMMKKWLMHPLLRKNDIESRLDSVDSLLQDITLREQLEITFSKLPDLERMLARIHSRTIKVKDFEKVITAFETIIELQDSLKNNDLKGDVSKYISSFPEGLVEAVKSWTNAFERQKAINENIIVPQRGFDIEFDKSMDRIQELEDELMEILMTYRKQFKCSNIQYKDSGKEIYTIEIPISATKNVPSNWVQMAANKTYKRYYSDEVRALARSMAEAKEIHKTLEEDLKNRLCQKFDAHYNTIWMPTIQAISNIDCLLAITRTSEYLGAPSCRPTIVDEVDSKTNTQLNGFLKFKSLRHPCFNLGATTAKDFIPNDIELGKEQPRLGLLTGANAAGKSTILRMACIAVIMAQMGCYVPCESAVLTPIDRIMTRLGANDNIMQGKSTFFVELAETKKILDMATNRSLLVVDELGRGGSSSDGFAIAESVLHHVATHIQSLGFFATHYGTLASSFKHHPQVRPLKMSILVDEATRNVTFLYKMLEGQSEGSFGMHVASMCGISKEIIDNAQIAADNLEHTSRLVKERDLAANNLNGEVVSVPGGLQSDFVRIAYGDGLKNTKLGSGEGVLNYDWNIKRNVLKSLFSIIDDLQS

Molecular target: T1, FLAG-tagged Mgm101 (budding yeast) (UniProt P32787)
T1 sequence: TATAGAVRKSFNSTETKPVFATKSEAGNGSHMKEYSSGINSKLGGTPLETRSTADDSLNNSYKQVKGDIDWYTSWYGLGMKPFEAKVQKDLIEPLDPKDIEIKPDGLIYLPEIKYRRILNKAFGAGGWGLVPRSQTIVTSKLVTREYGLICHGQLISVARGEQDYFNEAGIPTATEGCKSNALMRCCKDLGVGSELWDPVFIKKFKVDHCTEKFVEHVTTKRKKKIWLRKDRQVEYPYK
Assay: co-IP; 6 mg whole cell extract of galactose-induced cells incubated with Anti-FLAG M2 Affinity Gel; lysis buffer 50 mM sodium phosphate pH 7.4, 1 mM EDTA, 5% glycerol, protease inhibitors, nuclease mix; blotted for 6xHis

binding, binds:
chromosomally 6xHis-tagged Mph1 (from UniProt P40562 1-993), B1, B2
